Source: paper PMC4933475
No constants are given. Whether binding was seen depends on the method and setting. For part of these data: In cells and extracts the contact can be indirect. Some entries that bind do so weakly or less than the wild type.

Chains of the proteins cited; added tags and fusions are not shown. Lines headed by an entry give the natural chain unless they say otherwise; changes in a name come on top. A line that says so, or that is headed by a name, gives the form on record, which may keep a tag or linker. Residues count along the entry.
UniProt Q86W56: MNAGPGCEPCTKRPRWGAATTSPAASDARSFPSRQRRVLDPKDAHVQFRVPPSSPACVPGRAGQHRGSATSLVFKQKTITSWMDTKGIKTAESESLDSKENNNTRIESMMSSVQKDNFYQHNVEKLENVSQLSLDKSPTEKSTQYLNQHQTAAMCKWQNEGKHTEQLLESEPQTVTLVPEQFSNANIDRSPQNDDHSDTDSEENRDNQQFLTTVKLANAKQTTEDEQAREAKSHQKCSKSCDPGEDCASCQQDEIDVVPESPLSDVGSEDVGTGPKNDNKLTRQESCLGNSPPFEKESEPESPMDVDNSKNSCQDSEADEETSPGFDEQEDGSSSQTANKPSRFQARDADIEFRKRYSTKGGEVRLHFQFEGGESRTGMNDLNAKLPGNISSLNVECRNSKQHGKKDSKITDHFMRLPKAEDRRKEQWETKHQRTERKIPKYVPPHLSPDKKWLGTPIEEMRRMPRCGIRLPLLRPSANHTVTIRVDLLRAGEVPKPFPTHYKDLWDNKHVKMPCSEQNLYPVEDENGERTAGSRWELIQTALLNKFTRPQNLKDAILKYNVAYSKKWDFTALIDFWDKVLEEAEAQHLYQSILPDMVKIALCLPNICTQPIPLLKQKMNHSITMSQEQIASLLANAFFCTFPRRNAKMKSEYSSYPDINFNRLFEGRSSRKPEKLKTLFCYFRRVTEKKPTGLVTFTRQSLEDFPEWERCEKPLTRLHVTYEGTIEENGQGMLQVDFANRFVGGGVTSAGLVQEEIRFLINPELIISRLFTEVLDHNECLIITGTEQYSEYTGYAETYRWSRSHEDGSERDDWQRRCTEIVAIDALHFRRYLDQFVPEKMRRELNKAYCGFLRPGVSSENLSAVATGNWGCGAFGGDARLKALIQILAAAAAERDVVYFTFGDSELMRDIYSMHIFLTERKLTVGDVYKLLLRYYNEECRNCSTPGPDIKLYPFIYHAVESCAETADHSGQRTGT
UniProt Q15797: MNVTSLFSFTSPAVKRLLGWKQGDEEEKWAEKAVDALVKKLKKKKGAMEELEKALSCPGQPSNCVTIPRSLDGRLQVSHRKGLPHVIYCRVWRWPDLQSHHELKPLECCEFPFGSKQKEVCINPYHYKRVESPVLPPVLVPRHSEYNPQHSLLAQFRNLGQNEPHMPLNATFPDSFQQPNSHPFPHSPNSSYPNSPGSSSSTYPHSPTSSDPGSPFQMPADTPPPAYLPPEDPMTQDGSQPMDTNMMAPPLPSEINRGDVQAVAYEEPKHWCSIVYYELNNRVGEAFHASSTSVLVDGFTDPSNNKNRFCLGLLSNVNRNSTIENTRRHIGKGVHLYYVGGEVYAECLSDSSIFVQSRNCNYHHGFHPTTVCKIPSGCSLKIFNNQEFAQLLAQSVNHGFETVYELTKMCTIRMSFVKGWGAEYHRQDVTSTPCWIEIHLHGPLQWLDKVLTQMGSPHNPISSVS
GST-Smad1 MH1: residues 1-132 of Q15797
GST-Smad1 MH1 EELE to QQLQ (Q15797, form named): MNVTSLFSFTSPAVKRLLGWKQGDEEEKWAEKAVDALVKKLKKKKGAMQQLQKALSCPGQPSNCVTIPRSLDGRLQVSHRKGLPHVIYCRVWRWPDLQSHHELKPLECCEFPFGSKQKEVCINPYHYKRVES
GST-Smad1 MH1 K53A (Q15797, form named): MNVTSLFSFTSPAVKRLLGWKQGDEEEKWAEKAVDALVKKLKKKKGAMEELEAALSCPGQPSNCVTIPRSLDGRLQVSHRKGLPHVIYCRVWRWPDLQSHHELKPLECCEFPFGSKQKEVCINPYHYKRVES
GST-Smad1 MH1 K53R (Q15797, form named): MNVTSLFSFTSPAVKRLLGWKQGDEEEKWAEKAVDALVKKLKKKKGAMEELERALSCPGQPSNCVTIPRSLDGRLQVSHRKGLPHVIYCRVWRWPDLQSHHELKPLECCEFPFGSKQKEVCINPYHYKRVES
UniProt Q99717: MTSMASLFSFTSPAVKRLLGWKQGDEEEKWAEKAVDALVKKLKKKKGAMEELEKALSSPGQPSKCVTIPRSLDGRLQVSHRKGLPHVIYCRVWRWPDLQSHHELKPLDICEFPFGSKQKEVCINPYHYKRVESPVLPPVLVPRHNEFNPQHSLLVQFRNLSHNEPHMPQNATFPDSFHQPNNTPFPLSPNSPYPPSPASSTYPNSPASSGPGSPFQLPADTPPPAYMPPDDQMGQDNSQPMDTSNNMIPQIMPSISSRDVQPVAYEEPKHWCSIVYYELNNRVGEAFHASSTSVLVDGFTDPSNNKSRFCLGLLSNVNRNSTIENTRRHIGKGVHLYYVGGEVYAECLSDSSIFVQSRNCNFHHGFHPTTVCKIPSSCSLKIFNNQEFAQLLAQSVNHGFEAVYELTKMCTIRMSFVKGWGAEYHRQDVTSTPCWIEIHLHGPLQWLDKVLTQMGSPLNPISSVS
UniProt P84022: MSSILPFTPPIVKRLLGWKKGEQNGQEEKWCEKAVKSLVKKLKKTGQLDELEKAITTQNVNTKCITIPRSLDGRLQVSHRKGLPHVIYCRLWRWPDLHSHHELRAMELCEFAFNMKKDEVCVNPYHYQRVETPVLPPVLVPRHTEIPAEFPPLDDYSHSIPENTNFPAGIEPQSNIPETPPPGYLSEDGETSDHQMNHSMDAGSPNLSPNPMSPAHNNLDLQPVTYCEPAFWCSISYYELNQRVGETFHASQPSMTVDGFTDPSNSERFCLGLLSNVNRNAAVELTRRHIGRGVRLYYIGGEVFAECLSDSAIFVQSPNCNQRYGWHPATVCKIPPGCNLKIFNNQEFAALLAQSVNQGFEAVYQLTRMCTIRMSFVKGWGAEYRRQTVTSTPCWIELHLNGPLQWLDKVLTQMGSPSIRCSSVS
UniProt Q13485: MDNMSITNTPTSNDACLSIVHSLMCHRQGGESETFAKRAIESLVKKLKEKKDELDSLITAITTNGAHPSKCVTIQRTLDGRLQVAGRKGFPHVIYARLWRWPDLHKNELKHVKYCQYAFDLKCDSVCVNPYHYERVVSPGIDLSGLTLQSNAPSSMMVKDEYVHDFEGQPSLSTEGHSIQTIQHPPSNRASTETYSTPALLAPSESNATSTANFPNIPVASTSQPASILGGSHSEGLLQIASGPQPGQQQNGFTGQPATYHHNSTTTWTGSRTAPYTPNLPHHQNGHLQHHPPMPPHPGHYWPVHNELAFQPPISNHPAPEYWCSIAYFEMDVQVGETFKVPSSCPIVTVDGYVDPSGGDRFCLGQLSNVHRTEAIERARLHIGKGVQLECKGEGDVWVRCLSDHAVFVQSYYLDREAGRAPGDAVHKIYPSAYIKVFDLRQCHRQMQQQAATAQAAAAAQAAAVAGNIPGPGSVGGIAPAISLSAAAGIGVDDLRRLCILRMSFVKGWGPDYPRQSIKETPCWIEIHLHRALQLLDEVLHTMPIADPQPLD
UniProt P09874: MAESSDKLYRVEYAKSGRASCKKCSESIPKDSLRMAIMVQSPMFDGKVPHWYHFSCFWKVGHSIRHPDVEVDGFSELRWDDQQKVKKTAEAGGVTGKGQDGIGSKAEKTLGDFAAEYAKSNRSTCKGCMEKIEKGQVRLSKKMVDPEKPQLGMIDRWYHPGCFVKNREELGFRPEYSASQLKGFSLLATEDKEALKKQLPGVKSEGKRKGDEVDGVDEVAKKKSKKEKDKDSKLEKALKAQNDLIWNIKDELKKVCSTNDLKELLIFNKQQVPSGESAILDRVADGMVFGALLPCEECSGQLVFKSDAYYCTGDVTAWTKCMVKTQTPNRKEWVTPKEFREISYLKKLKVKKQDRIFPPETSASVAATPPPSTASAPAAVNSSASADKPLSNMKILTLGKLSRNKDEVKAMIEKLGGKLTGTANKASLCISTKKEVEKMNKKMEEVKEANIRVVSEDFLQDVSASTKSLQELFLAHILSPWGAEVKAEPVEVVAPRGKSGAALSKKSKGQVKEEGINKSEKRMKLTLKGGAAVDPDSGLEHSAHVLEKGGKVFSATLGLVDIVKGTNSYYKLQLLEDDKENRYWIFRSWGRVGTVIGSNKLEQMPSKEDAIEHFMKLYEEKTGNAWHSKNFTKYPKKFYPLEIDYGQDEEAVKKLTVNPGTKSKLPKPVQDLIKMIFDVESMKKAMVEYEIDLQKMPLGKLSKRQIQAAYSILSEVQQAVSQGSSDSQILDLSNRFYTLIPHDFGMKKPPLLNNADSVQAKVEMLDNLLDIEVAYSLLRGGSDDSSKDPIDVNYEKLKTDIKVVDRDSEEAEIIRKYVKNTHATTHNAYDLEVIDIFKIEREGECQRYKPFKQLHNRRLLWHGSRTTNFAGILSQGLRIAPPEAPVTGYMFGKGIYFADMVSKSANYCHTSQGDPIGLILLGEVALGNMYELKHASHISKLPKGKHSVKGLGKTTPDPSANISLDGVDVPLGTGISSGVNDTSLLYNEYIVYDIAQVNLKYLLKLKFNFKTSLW

What was measured:
[1] = biological target: endogenous PARG (HaCaT) (human (endogenous in HaCaT)) (UniProt Q86W56); assay: co-IP; endogenous proteins from total HaCaT lysates; antibodies precoupled to protein A/G Dynabeads, overnight at 4 °C; without or with 30 ng/ml BMP7 for 30 min; nonspecific IgG as negative control
[2] = biological target: endogenous PARG (HaCaT) (human (endogenous in HaCaT)) (UniProt Q86W56); assay: co-IP; immunoprecipitation of endogenous PARG from nuclear HaCaT extracts (CelLytic NuCLEAR extraction kit); without or with 30 ng/ml BMP7 for 30 min
[3] = biological target: endogenous PARG (HaCaT) (human (endogenous in HaCaT)) (UniProt Q86W56); assay: co-IP; immunoprecipitation of endogenous PARG from cytoplasmic HaCaT extracts (CelLytic NuCLEAR extraction kit); without or with 30 ng/ml BMP7 for 30 min
[4] = biological target: endogenous Smad1 (HaCaT) (human (endogenous in HaCaT)) (UniProt Q15797); assay: proximity ligation; HaCaT cells, mouse anti-Smad1 and rabbit anti-PARP1 antibodies, Duolink II; without or with 30 ng/ml BMP7 for the indicated times
[5] = biological target: endogenous Smad1 (HaCaT) (human (endogenous in HaCaT)) (UniProt Q15797); assay: co-IP; endogenous proteins from total HaCaT lysates; antibodies precoupled to protein A/G Dynabeads, overnight at 4 °C; without or with 30 ng/ml BMP7 for 30 min; nonspecific IgG as negative control
GST-Smad1 [6] = biological target: GST-Smad1 (UniProt Q15797); assay: pull-down; in vitro ADP-ribosylation assay done as a pulldown: GST-Smads on glutathione beads with 100 ng recombinant PARP1, 80 nM β-NAD+ and 20 nM 32P-β-NAD+, 30 min at 37 °C; autoradiography; both purified
GST-Smad5 [7] = biological target: GST-Smad5 (UniProt Q99717); assay: as above
[8] = biological target: GST-Smad1 MH1 EELE to QQLQ (UniProt Q15797); assay: pull-down; non-radioactive ADP-ribosylation assay: GST-Smad1 MH1 proteins on glutathione beads with recombinant PARP1 (20 ng) and cold β-NAD+, then pulldown and immunoblot for PARP1; both purified
GST-Smad1 MH1 K53A [9] = biological target: GST-Smad1 MH1 K53A (UniProt Q15797); assay: as above
GST-Smad1 MH1 K53R [10] = biological target: GST-Smad1 MH1 K53R (UniProt Q15797); assay: as above
GST-Smad1 MH1 [11] = biological target: GST-Smad1 MH1 (UniProt Q15797); assay: as above
FLAG-Smad5 [12] = biological target: FLAG-Smad5 (UniProt Q99717); assay: co-IP; HEK293T transfected with FLAG-Smads; FLAG immunoprecipitation, immunoblot for endogenous PARP1; without or with 10 mM H2O2 for 10 min; no BMP ligand
FLAG-Smad3 = FLAG-Smad3 (UniProt P84022); assay: as above
FLAG-Smad4 = FLAG-Smad4 (UniProt Q13485); assay: as above
FLAG-Smad1 [13] = biological target: FLAG-Smad1 (UniProt Q15797); assay: as above
[14] = biological target: GST-Smad1 MH1 EELE to QQLQ (UniProt Q15797); assay: pull-down; GST fusion proteins on glutathione-Sepharose beads added to total HEK293T cell lysates, 2 h at 4 °C; washed in Nonidet P-40 lysis buffer; immunoblot for endogenous PARP1; only the target purified
GST-Smad1 MH1 K53A [15] = biological target: GST-Smad1 MH1 K53A (UniProt Q15797); assay: as above
GST-Smad1 [16] = biological target: GST-Smad1 (UniProt Q15797); assay: as above
GST-Smad1 MH1 K53R [17] = biological target: GST-Smad1 MH1 K53R (UniProt Q15797); assay: as above
GST-Smad4 = GST-Smad4 (UniProt Q13485); assay: as above
GST-Smad5 [18] = biological target: GST-Smad5 (UniProt Q99717); assay: as above
GST-Smad1 MH1 [19] = biological target: GST-Smad1 MH1 (UniProt Q15797); assay: as above
FLAG-Smad5 [20] = biological target: FLAG-Smad5 (UniProt Q99717); assay: co-IP; unpublished results; HEK293T co-transfected with Smad1 and Smad4 or Smad5 and Smad4, complex with endogenous PARP1
FLAG-Smad1 [21] = biological target: FLAG-Smad1 (UniProt Q15797); assay: as above

endogenous Smad5 (HaCaT) (from UniProt Q99717 1-465)
binding [1]: binds

endogenous Smad4 (HaCaT) (from UniProt Q13485 1-552)
binding [2]: binds
binding [1]: binds
binding [3]: no binding (condition: cytoplasmic HaCaT extract)

endogenous PARP1 (HaCaT) (from UniProt P09874 1-1014) (enzyme)
binding [4]: binds
binding [2]: binds
binding [5]: binds
binding [3]: no binding (condition: cytoplasmic HaCaT extract)

recombinant PARP1 (from UniProt P09874 1-1014) (enzyme)
binding (GST-Smad1 [6]): binds
binding (GST-Smad5 [7]): binds
binding [8]: binds
binding (GST-Smad1 MH1 K53A [9]): binds
binding (GST-Smad1 MH1 K53R [10]): binds
binding (GST-Smad1 MH1 [11]): binds

endogenous PARP1 (HEK293T) (from UniProt P09874 1-1014) (enzyme)
binding (FLAG-Smad5 [12]): binds
binding (FLAG-Smad3): binds
binding (FLAG-Smad4): binds
binding (FLAG-Smad1 [13]): binds
binding [14]: binds
binding (GST-Smad1 MH1 K53A [15]): binds
binding (GST-Smad1 [16]): binds
binding (GST-Smad1 MH1 K53R [17]): binds
binding (GST-Smad4): binds
binding (GST-Smad5 [18]): binds
binding (GST-Smad1 MH1 [19]): binds
binding (FLAG-Smad5 [20]): binds
binding (FLAG-Smad1 [21]): binds
